# The other results are listed elsewhere or left out.
# Tests used:
# Experiment in all cases: glycan array binding signal (z-score within array); higher = stronger binding
# Details in all cases: glycan notation: IUPAC condensed, linker removed
# [1] = target: Gal(a1-3)Gal(b1-4)GlcNAc(b1-2)Man
# In short: (§1)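 Columns mapping to the same glycan were averaged after glycan names were converted to IUPAC-condensed notation. The data come from 3228 arrays in the Consortium for Functional Glycomics database, limited to those with an available protein sequence. Binding is reported as a within-array Z-score averaged across arrays of one protein sequence and across linkers.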
# [2] = target: Gal(a1-3)Gal(b1-4)GlcNAc(b1-2)Man(a1-3)[Gal(a1-3)Gal(b1-4)GlcNAc(b1-2)Man(a1-6)]Man(b1-4)GlcNAc(b1-4)GlcNAc
# In short: as §1
# [3] = target: Gal(a1-3)Gal(b1-4)GlcNAc(b1-3)GalNAc
# In short: as §1
# [4] = target: Gal(a1-3)Gal(b1-4)GlcNAc(b1-6)GalNAc
# In short: as §1
# [5] = target: Gal(a1-3)Gal(b1-4)[Fuc(a1-3)]GlcNAc
# In short: as §1
# [6] = target: Gal(a1-3)Gal(b1-4)[Fuc(a1-3)]GlcNAc(b1-2)Man(a1-3)[Gal(a1-3)Gal(b1-4)[Fuc(a1-3)]GlcNAc(b1-2)Man(a1-6)]Man(b1-4)GlcNAc(b1-4)GlcNAc
# In short: as §1
# [7] = target: Gal(a1-3)GalNAc
# In short: as §1
# [8] = target: Gal(a1-3)[Gal(a1-4)]Gal(b1-4)GlcNAc
# In short: as §1
# [9] = target: Gal(a1-4)Gal(b1-3)GlcNAc(b1-2)Man(a1-3)[Gal(a1-4)Gal(b1-3)GlcNAc(b1-2)Man(a1-6)]Man(b1-4)GlcNAc(b1-4)GlcNAc
# In short: as §1
# [10] = target: Gal(a1-4)Gal(b1-4)Glc
# In short: as §1
# [11] = target: Gal(a1-4)Gal(b1-4)GlcNAc
# In short: as §1
# [12] = target: Gal(a1-4)Gal(b1-4)GlcNAc(b1-2)Man(a1-3)[Gal(a1-4)Gal(b1-4)GlcNAc(b1-2)Man(a1-6)]Man(b1-4)GlcNAc(b1-4)GlcNAc
# In short: as §1
# [13] = target: Gal(a1-4)Gal(b1-4)GlcNAc(b1-3)Gal(b1-4)Glc
# In short: as §1
# [14] = target: Gal(a1-4)GlcNAc
# In short: as §1
# [15] = target: Gal(a1-6)Glc
# In short: as §1
# [16] = target: Gal(b1-2)Gal
# In short: as §1
# [17] = target: Gal(b1-3)Gal
# In short: as §1
# [18] = target: Gal(b1-3)Gal(b1-4)GlcNAc
# In short: as §1
# [19] = target: Gal(b1-3)GalNAc
# In short: as §1
# [20] = target: Gal(b1-3)GalNAc(a1-3)[Fuc(a1-2)]Gal(b1-4)Glc
# In short: as §1
# [21] = target: Gal(b1-3)GalNAc(a1-3)[Fuc(a1-2)]Gal(b1-4)GlcNAc
# In short: as §1
# [22] = target: Gal(b1-3)GalNAc(b1-3)Gal
# In short: as §1
# [23] = target: Gal(b1-3)GalNAc(b1-3)Gal(a1-4)Gal(b1-4)Glc
# In short: as §1
# [24] = target: Gal(b1-3)GalNAc(b1-4)Gal(b1-4)Glc
# In short: as §1
# [25] = target: Gal(b1-3)GalNAc(b1-4)[Neu5Ac(a2-3)]Gal(b1-4)Glc
# In short: as §1
# [26] = target: Gal(b1-3)GlcNAc
# In short: as §1
# [27] = target: Gal(b1-3)GlcNAc(a1-3)Gal(b1-4)GlcNAc
# In short: as §1
# [28] = target: Gal(b1-3)GlcNAc(a1-6)Gal(b1-4)GlcNAc
# In short: as §1
# [29] = target: Gal(b1-3)GlcNAc(b1-2)Man
# In short: as §1
# [30] = target: Gal(b1-3)GlcNAc(b1-2)Man(a1-3)[Gal(b1-3)GlcNAc(b1-2)Man(a1-6)]Man(b1-4)GlcNAc(b1-4)GlcNAc
# In short: as §1
# [31] = target: Gal(b1-3)GlcNAc(b1-2)Man(a1-3)[Gal(b1-3)GlcNAc(b1-2)Man(a1-6)]Man(b1-4)GlcNAc(b1-4)[Fuc(a1-6)]GlcNAc
# In short: as §1
# [32] = target: Gal(b1-3)GlcNAc(b1-2)Man(a1-3)[GlcNAc(b1-4)][Gal(b1-3)GlcNAc(b1-2)Man(a1-6)]Man(b1-4)GlcNAc(b1-4)GlcNAc
# In short: as §1
# [33] = target: Gal(b1-3)GlcNAc(b1-2)[Gal(b1-3)GlcNAc(b1-6)]Man(a1-6)[Gal(b1-3)GlcNAc(b1-2)Man(a1-3)]Man(b1-4)GlcNAc(b1-4)GlcNAc
# In short: as §1
# [34] = target: Gal(b1-3)GlcNAc(b1-3)Gal(b1-3)GlcNAc
# In short: as §1
# [35] = target: Gal(b1-3)GlcNAc(b1-3)Gal(b1-4)Glc
# In short: as §1
# [36] = target: Gal(b1-3)GlcNAc(b1-3)Gal(b1-4)GlcNAc
# In short: as §1
# [37] = target: Gal(b1-3)GlcNAc(b1-3)Gal(b1-4)GlcNAc(b1-2)Man(a1-3)[Gal(b1-3)GlcNAc(b1-3)Gal(b1-4)GlcNAc(b1-2)Man(a1-6)]Man(b1-4)GlcNAc(b1-4)GlcNAc
# In short: as §1
# [38] = target: Gal(b1-3)GlcNAc(b1-3)Gal(b1-4)GlcNAc(b1-2)[Gal(b1-3)GlcNAc(b1-3)Gal(b1-4)GlcNAc(b1-6)]Man(a1-6)[Gal(b1-3)GlcNAc(b1-3)Gal(b1-4)GlcNAc(b1-2)Man(a1-3)]Man(b1-4)GlcNAc(b1-4)[Fuc(a1-6)]GlcNAc
# In short: as §1
# [39] = target: Gal(b1-3)GlcNAc(b1-3)Gal(b1-4)GlcNAc(b1-3)Gal(b1-4)GlcNAc(b1-2)[Gal(b1-3)GlcNAc(b1-3)Gal(b1-4)GlcNAc(b1-3)Gal(b1-4)GlcNAc(b1-6)]Man(a1-6)[Gal(b1-3)GlcNAc(b1-3)Gal(b1-4)GlcNAc(b1-3)Gal(b1-4)GlcNAc(b1-2)Man(a1-3)]Man(b1-4)GlcNAc(b1-4)[Fuc(a1-6)]GlcNAc
# In short: as §1
# [40] = target: Gal(b1-3)GlcNAc(b1-3)Gal(b1-4)GlcNAc(b1-6)[Gal(b1-3)GlcNAc(b1-3)]Gal(b1-4)Glc
# In short: as §1
# [41] = target: Gal(b1-3)GlcNAc(b1-3)Gal(b1-4)[Fuc(a1-3)]GlcNAc
# In short: as §1
# [42] = target: Gal(b1-3)GlcNAc(b1-3)Gal(b1-4)[Fuc(a1-3)]GlcNAc(b1-6)[Gal(b1-3)GlcNAc(b1-3)]Gal(b1-4)Glc
# In short: as §1
# [43] = target: Gal(b1-3)GlcNAc(b1-3)GalNAc
# In short: as §1
# [44] = target: Gal(b1-3)GlcNAc(b1-6)Gal(b1-4)GlcNAc
# In short: as §1
# [45] = target: Gal(b1-3)GlcNAc(b1-6)GalNAc
# In short: as §1
binder,measurement,setting,value
EULS2 M1 (Oryza sativa) (protein) MVYCRANPNYAMTARNGAVVLAPANPKDEYQHWIKDMRWSTSIKDEEGYPAFALVNKATGQAIKHSLGQSHPVRLVPYNPEVMDESVLWTESRDVGNGFRCIRMVNNIYLNFDAFHGDKYHGGVRDGTDIVLWKLCEGDNQRWKIQPYYILEQKLISEEDLNSAVDHHHHHH,glycan array binding signal (z-score),[1],-0.165
same,glycan array binding signal (z-score),[2],0.844
same,glycan array binding signal (z-score),[3],-0.954
same,glycan array binding signal (z-score),[4],1.19
same,glycan array binding signal (z-score),[5],-0.542
same,glycan array binding signal (z-score),[6],-0.565
same,glycan array binding signal (z-score),[7],0.155
same,glycan array binding signal (z-score),[8],0.986
same,glycan array binding signal (z-score),[9],0.474
same,glycan array binding signal (z-score),[10],-0.987
same,glycan array binding signal (z-score),[11],-0.469
same,glycan array binding signal (z-score),[12],-0.528
same,glycan array binding signal (z-score),[13],0.021
same,glycan array binding signal (z-score),[14],0.337
same,glycan array binding signal (z-score),[15],-0.132
same,glycan array binding signal (z-score),[16],0.592
same,glycan array binding signal (z-score),[17],0.605
same,glycan array binding signal (z-score),[18],-0.685
same,glycan array binding signal (z-score),[19],-0.221
same,glycan array binding signal (z-score),[20],0.267
same,glycan array binding signal (z-score),[21],-0.105
same,glycan array binding signal (z-score),[22],-0.335
same,glycan array binding signal (z-score),[23],-0.504
same,glycan array binding signal (z-score),[24],-0.718
same,glycan array binding signal (z-score),[25],-0.704
same,glycan array binding signal (z-score),[26],-0.34
same,glycan array binding signal (z-score),[27],-0.534
same,glycan array binding signal (z-score),[28],-0.715
same,glycan array binding signal (z-score),[29],-0.26
same,glycan array binding signal (z-score),[30],-0.11
same,glycan array binding signal (z-score),[31],-0.211
same,glycan array binding signal (z-score),[32],1.35
same,glycan array binding signal (z-score),[33],0.089
same,glycan array binding signal (z-score),[34],-0.334
same,glycan array binding signal (z-score),[35],0.016
same,glycan array binding signal (z-score),[36],0.123
same,glycan array binding signal (z-score),[37],0.29
same,glycan array binding signal (z-score),[38],-0.06
same,glycan array binding signal (z-score),[39],0.535
same,glycan array binding signal (z-score),[40],-0.454
same,glycan array binding signal (z-score),[41],0.122
same,glycan array binding signal (z-score),[42],-1
same,glycan array binding signal (z-score),[43],-0.422
same,glycan array binding signal (z-score),[44],-0.343
same,glycan array binding signal (z-score),[45],0.284

# Reprinted from above (2 entries):
binder,measurement,setting,value
EULS2 M1 (Oryza sativa) (protein) MVYCRANPNYAMTARNGAVVLAPANPKDEYQHWIKDMRWSTSIKDEEGYPAFALVNKATGQAIKHSLGQSHPVRLVPYNPEVMDESVLWTESRDVGNGFRCIRMVNNIYLNFDAFHGDKYHGGVRDGTDIVLWKLCEGDNQRWKIQPYYILEQKLISEEDLNSAVDHHHHHH,glycan array binding signal (z-score),[40],-0.454
same,glycan array binding signal (z-score),[41],0.122
